Data taken from PubChem BioAssay AID1259354 (Paczesny and Yang Labs, IUPUI and University of Michigan, 2018).
“And” between values parts separate entries of the source, which are not always exact repeats. Identical values can stand only once. The campaign covered roughly 78,000 compounds. About 1,800 (2.3%) were called active. Inconclusive results, whose numbers are uncertain, are shown with a selection of clear calls. No stated cut-off is given here; in the data, active means inhibition above about 30%; inconclusive means mostly about 10% to 28%; inactive means weaker than that.

Sequences of proteins named here, by UniProt entry; tags and fusion partners are left off. A change or cut given only in a name is not applied to a line headed by its entry.
UniProt Q01638: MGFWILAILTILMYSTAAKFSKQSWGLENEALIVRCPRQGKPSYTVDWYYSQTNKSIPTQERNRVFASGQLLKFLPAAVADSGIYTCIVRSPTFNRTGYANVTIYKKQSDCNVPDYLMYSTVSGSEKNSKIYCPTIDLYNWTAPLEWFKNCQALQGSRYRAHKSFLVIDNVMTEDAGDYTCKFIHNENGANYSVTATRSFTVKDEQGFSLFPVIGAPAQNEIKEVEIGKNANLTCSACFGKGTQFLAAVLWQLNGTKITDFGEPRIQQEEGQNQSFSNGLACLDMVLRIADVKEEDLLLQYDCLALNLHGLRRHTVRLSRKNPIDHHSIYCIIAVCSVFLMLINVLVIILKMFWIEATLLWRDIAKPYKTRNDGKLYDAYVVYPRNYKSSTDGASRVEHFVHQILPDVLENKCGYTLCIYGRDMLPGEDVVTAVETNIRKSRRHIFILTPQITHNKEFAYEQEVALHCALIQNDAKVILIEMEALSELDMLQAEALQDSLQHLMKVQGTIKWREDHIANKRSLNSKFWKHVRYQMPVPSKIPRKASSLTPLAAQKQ

molecular target: Interleukin-1 receptor-like 1 (Homo sapiens) (UniProt Q01638); experiment: blocks human ST2 binding to IL-33, primary screen, biochemical, AlphaLISA (AID 1259354); conditions: AlphaLISA ST2-Fc/biotin-IL-33 interaction, 1 h; at 17 µM, stronger effect = higher value

Structure (SMILES) | inhibition
CC(C)(C)n1nc2c(c1NC(=O)c1ccc(Cl)cc1)CSC2 | inconclusive: 10%
COC(=O)C1=C(N)OC2=C(C(=O)CC(C)(C)C2)C1c1cccc(Br)c1 (centres undefined) | inactive
COc1ccc(CNc2ccccc2[N+](=O)[O-])cc1 | active: 38%
COc1cc(OC)c(CN2CCN(c3ccccc3F)CC2)cc1Br | active: 36%
O=C(CSc1n[nH]c(-c2ccccc2)n1)c1ccc(F)cc1 | inactive
CC(O)c1nc2ccccc2n1CCOc1ccccc1 (centres undefined) | inconclusive: 12%
Cc1ccsc1CN1CC(=O)N(c2ccc(Cl)cc2)C1=O | inactive
CC1(C)CC(=O)C2=C(C1)NC1=C(C(=O)c3ccccc31)C2c1ccc(O)c(O)c1 (centres undefined) | inconclusive: 17% and inconclusive: 15%
Nc1ccnc(N2CCC(CO)(Cc3ccccc3Cl)CC2)n1 | inconclusive: 17%
Cn1c(=NC(=O)c2ccc(S(=O)(=O)N3CCCC3)cc2)sc2cc(Cl)ccc21 | inactive
O=C(Nc1ccccn1)C1CCN(S(=O)(=O)c2cccc3cccnc23)CC1 | inactive
O=C(Nc1ccc2c(c1)CN(C(=O)c1cnccn1)CC2)c1ccccc1Cl | inconclusive: 15%
O=C1c2ccccc2-c2nc(=O)c3c4c(sc3n21)CCCC4 | inactive
Cc1c[nH]c(CN2CCCC(N3CCCC3=O)C2)c(C)c1=O (centres undefined) | inconclusive: 13%
COc1cc(C(=O)N2CCCN(C)C3(CCN(C)CC3)C2)nc(OC)n1 | active: 33%
O=C(COc1cccc([N+](=O)[O-])c1)Nc1cccc(I)c1 | inconclusive: 18%
Cn1cc(CN2CCC(C(O)(c3ccccc3)c3ccccc3)CC2)cn1 | inconclusive: 15%
CC(C)c1ccc(C2CC(c3ccccc3Cl)Nc3ncnn32)cc1 (centres undefined) | inconclusive: 20%
O=C(CCS(=O)(=O)Cc1ccc(Cl)cc1)NC1CCCC1 | inactive
Nc1ccc(CCc2nc3ccc(N)cc3[nH]2)cc1 | inactive

Structure (SMILES) | inhibition
CC1=C(C(=O)Nc2ccc(C)cn2)C(c2ccc(Cl)cc2Cl)C2=C(CCCC2=O)N1 (centres undefined) | inconclusive: 18%
CC(C)c1cc(C2CCN(C(=O)C3CC(=O)c4ccccc43)CC2)[nH]n1 (centres undefined) | inactive
Cc1ccc(N2CCN(C(=O)CSc3ccccc3)CC2C)cc1 (centres undefined) | inconclusive: 14%
CN(C)CCCN(CC1CCN(C2Cc3ccccc3C2)CC1)C(=O)C1=CCCCC1 | inconclusive: 16%
CC(=O)O[C@]1(C(C)=O)CC[C@H]2[C@@H]3C=C(Cl)C4=CC(=O)[C@@H]5C[C@@H]5[C@]4(C)[C@H]3CC[C@@]21C | inconclusive: 10%
c1cncc(COC2CCN(Cc3ccc(-c4cccnc4)cc3)CC2)c1 | inconclusive: 14%
Cc1ccc(-c2nnc(CNCCSc3nnnn3C)o2)n1C | inconclusive: 10%
COc1ccc(Oc2nc3c(c(=O)n(C)c(=O)n3C)n2Cc2ccc(Cl)cc2)cc1 | inactive
CCc1nc(C)sc1C(=O)N[C@H]1C[C@H]2C(=O)NCC(=O)N2C1 | inconclusive: 10%
CC(C)Oc1ccc(C(=O)N2CCC(C(Cc3ccc(F)cc3F)N(C)C(=O)C3CC3)CC2)cc1 (centres undefined) | inactive
COc1cccc(OC)c1CNC(=O)CC1NC(=O)c2ccccc21 (centres undefined) | inactive
COc1ccc(NC(=O)COc2nsnc2N2CCCCC2)cc1 | inconclusive: 12%
COc1cccc(-c2nc3cc(N=Cc4ccc([N+](=O)[O-])cc4)ccc3o2)c1 | inactive
Cc1cc2ccccc2c(=O)n1CC(=O)NCC(=O)NCCC1=CCCCC1 | inactive
CCOC(=O)c1c(-c2ccccc2)csc1NC(=O)c1cc(C)on1 | inactive
CCS(=O)(=O)c1ccc2oc(=O)c(C=C(O)c3cccc(OC)c3)nc2c1 | inconclusive: 11%
O[C@@H]1C[C@@H](c2nc(-c3ccc4c(c3)OCO4)no2)N(Cc2ccccn2)C1 | inconclusive: 21%
Cc1cccc(NC(=O)c2cnn3c(C(F)(F)F)cc(-c4ccco4)nc23)c1C | inconclusive: 20%
COc1ccc(N(C(=O)c2c(F)cccc2F)C2C=CS(=O)(=O)C2)cc1 (centres undefined) | inactive
CCc1nc(C)c(C(=O)NCCN2CCCOC2=O)s1 | inconclusive: 17%

Structure (SMILES) | inhibition
COc1ccc2oc(=Nc3ccc(C(C)=O)cc3)c(C(N)=O)cc2c1 | active: 40%
Cc1cc(Nc2ccccc2)nc(Nc2ccc(NC(=O)CCc3ccccc3)cc2)n1 | inconclusive: 22%
Nc1ccc(C(=O)c2cccs2)cc1[N+](=O)[O-] | inconclusive: 26%
N#Cc1c(-c2ccccc2)cc(-c2ccco2)c(C#N)c1N | inconclusive: 18%
O=C(Nc1cccc(C(F)(F)F)c1)N[C@H]1CO[C@H]2[C@@H]1OC[C@@H]2Nc1nccc(-c2cccc(F)c2)n1 | inconclusive: 19%
Cc1ccc(S(=O)(=O)c2nc(-c3ccccc3F)oc2N2CCOCC2)cc1 | inconclusive: 15%
Cc1ccc(Oc2cc(NC(=O)CCCn3nc(C)c([N+](=O)[O-])c3C)cc([N+](=O)[O-])c2)cc1 | inconclusive: 18%
COc1cc2c(cc1CN1CCCC(c3ccn[nH]3)C1)CCC2 (centres undefined) | inconclusive: 22%
O=S(=O)(c1cccc2cccnc12)N1CCN(c2ncccn2)CC1 | inconclusive: 15%
COc1cccc(C2N(c3nccs3)C(=O)C3CCCN32)c1OC (centres undefined) | inactive
Cc1cc(C)c(C)c(OCC(=O)NCc2ccccn2)c1 | inconclusive: 23%
O=C(NCc1ccco1)Nc1ccc(Cc2ccc(NC(=O)NCc3ccco3)cc2)cc1 | inactive
COc1ccc(C2CC(=O)C3=C(C2)Nc2ccccc2NC3c2ccc(C)cc2)cc1OC (centres undefined) | inactive
CC(C)OC(=O)C1=C(N)OC2=C(C(=O)CC(C)(C)C2)C1c1ccc(Cl)cc1 (centres undefined) | inconclusive: 14%
Cc1ccccc1-c1cccc(C(=O)N[C@H]2C[C@H]3C(=O)NCC(=O)N3C2)c1 | inactive
CCn1cnc2cc(NCc3ccc(C)cc3)ccc21 | inactive
COc1ccccc1CN1C(=O)C2C3CCC(C3)C2C1=O (centres undefined) | inconclusive: 10%
O=c1cc(CN2CCc3[nH]nc(-c4ccc(Cl)cc4)c3C2)nc(C2CC2)[nH]1 | inactive
CC1(C)Cc2c(sc(NC(=O)c3ccc(Cl)cc3)c2C#N)CO1 | inconclusive: 17%
